The list shows only some results of the screen, not a fair sample: it gathers tests that were run many times, whatever their T/C, doses with no T/C, and many T/C values between a quarter and a half above the control. Other doses and runs of a compound stand elsewhere. T/C gives the treated animals as a percentage of the vehicle group. Some doses have a count of surviving animals in place of a T/C: the source files T/C as zero there, which appears to mark a toxic dose or a test without result, not a measured value. Some doses without a T/C left all or most animals alive at the check, yet need not have been tolerated: survival well below the control is almost never listed, so the zero probably covers shortened survival too. Counts of survivors are from the toxicity check (mostly the fifth day) where no day follows; animals may have died later. Schedules are NCI's codes, taken here to give the interval after Q, in days (D) or hours (H), and the number of doses after X. Some entries were tested several times; their values stand side by side, smallest first. Where survival is the endpoint, this PubChem deposit counts one and a half times the control or more as active, and values a quarter to a half above the control carry no call in these data; other NCI protocols may use other cut-offs. Some T/C values are followed by the survivors on the day toxicity was checked, most often the fifth; without a count, all were alive then. Signs of the kind (2×) say how often a value occurs here.

In this test the test system is P388 leukemia ip, CD2F1 mice, survival T/C. The test is described as follows: NCI In Vivo Anticancer Drug Screen. Data for tumor model P388 Leukemia (intraperitoneal) in CD2F1 (CDF1) mice. To be noted: T/C endpoint: median survival time, higher T/C = longer survival.
The mark [1] stands for this setting: dose: 50.0 mg/kg/injection, schedule: Q04DX002 (ip), vehicle: saline with Tween-80.
Setting [2] is: dose: 200.0 mg/kg/injection, schedule: Q01DX005 (ip), vehicle: saline.
[3] abbreviates: dose: 240.0 mg/kg/injection, schedule: Q01DX005 (ip), vehicle: saline with Tween-80.
Setting [4] is: dose: 6.25 mg/kg/injection, schedule: Q01DX009 (ip), vehicle: Klucel (hydroxypropylcellulose) (HPC).
[5] abbreviates: dose: 12.5 mg/kg/injection, schedule: Q01DX009 (ip), vehicle: Klucel (hydroxypropylcellulose) (HPC).
[6] abbreviates: dose: 25.0 mg/kg/injection, schedule: Q01DX009 (ip), vehicle: Klucel (hydroxypropylcellulose) (HPC).
The mark [7] stands for this setting: dose: 200.0 mg/kg/injection, schedule: Q01DX009 (ip), vehicle: Klucel (hydroxypropylcellulose) (HPC).
Setting [8] is: dose: 200.0 mg/kg/injection, schedule: Q01DX005 (ip), vehicle: saline with Tween-80.
Setting [9] is: dose: 240.0 mg/kg/injection, schedule: Q01DX005 (ip), vehicle: Klucel (hydroxypropylcellulose) (HPC).
Where [10] appears, read: dose: 50.0 mg/kg/injection, schedule: Q01DX009 (ip), vehicle: other.
The mark [11] stands for this setting: dose: 200.0 mg/kg/injection, schedule: Q01DX009 (ip), vehicle: saline.
Setting [12] is: dose: 25.0 mg/kg/injection, schedule: Q01DX009 (ip), vehicle: saline.
Where [13] appears, read: dose: 50.0 mg/kg/injection, schedule: Q01DX009 (ip), vehicle: saline.

Consider `CN=C(N)N/N=C(\c1ccccc1)c1ccc(Br)cc1`, for which the T/C is 95, 105, 106 % of control (2×) (dose: 12.5 mg/kg/injection, schedule: Q04DX002 (ip), vehicle: saline with Tween-80); 108 (2×), 126, 167 % of control [5 of 6 alive] (dose: 25.0 mg/kg/injection, schedule: Q04DX002 (ip), vehicle: saline with Tween-80); 129, 131, 178 % of control under setting [1]. For the same compound, the survivor count is 5 of 6 under setting [1]; 0 of 6 and 6 of 6 (dose: 100.0 mg/kg/injection, schedule: Q04DX002 (ip), vehicle: saline with Tween-80).
On to `CC[N+](C)(CC)C1C(S(=O)(=O)c2ccccc2)CC1(C)C` (stereo not given), for which, under setting [2], the survivor count was 0 of 6.
In the case of `O=C(O)C1=CC2C=C(Cl)C=CC2OC1=O` (stereo not given), the survivor count under setting [3] is 0 of 6.
Consider `NC(N)=N/N=C/C(Cl)Cl`, for which the survivor count is 1 of 6 (dose: 200.0 mg/kg/injection, schedule: Q04DX003 (ip), vehicle: saline) and 0 of 6 (dose: 400.0 mg/kg/injection, schedule: Q04DX003 (ip), vehicle: saline).
Regarding `C1CCC2[N-]CC3CCCCC3[N-]CC3CCCCC3[N-]CC3CCCCC3[N-]CC2C1.[Cu]` (stereo not given), the T/C reads like this: (dose: 0.78 mg/kg/injection, schedule: Q01DX009 (ip), vehicle: Klucel (hydroxypropylcellulose) (HPC)) 132 % of control; (dose: 1.56 mg/kg/injection, schedule: Q01DX009 (ip), vehicle: Klucel (hydroxypropylcellulose) (HPC)) 125 and 132 % of control; (dose: 3.12 mg/kg/injection, schedule: Q01DX009 (ip), vehicle: Klucel (hydroxypropylcellulose) (HPC)) 130 and 139 % of control; (dose: 3.12 mg/kg/injection, schedule: Q01DX009 (ip), vehicle: saline) 132 % of control; (dose: 3.12 mg/kg/injection, schedule: Q01DX009 (oral), vehicle: Klucel (hydroxypropylcellulose) (HPC)) 125 % of control; under setting [4], 128 and 145 % of control. Besides, the T/C runs as follows: (dose: 6.25 mg/kg/injection, schedule: Q01DX009 (ip), vehicle: saline) 126 % of control [5 of 6 alive]; under setting [5], 141 % of control. The survivor count under setting [6] was 0 of 10 and 3 of 10; the survivor count (dose: 50.0 mg/kg/injection, schedule: Q01DX009 (oral), vehicle: Klucel (hydroxypropylcellulose) (HPC)) is 10 of 10.
As for `CCOC(=O)NC(=S)c1ccc[nH]1`, the survivor count (dose: 100.0 mg/kg/injection, schedule: Q01DX009 (ip), vehicle: Klucel (hydroxypropylcellulose) (HPC)) is given as 3 of 6 and the survivor count under setting [7] is on record as 0 of 6.
With `CC1CCCC/C1=N\N(C)C` (stereo not given), the survivor count under setting [3] is 1 of 6.
On to `Cc1cc(NC(=O)c2ccc(N)cc2)ccc1N=Nc1ccc2c(O)c(N=Nc3ccc(S(=O)(=O)O)cc3C)c(S(=O)(=O)O)cc2c1`, for which the survivor count under setting [8] is 1 of 6.
Take `CC1[C@@]2(O[C@@H]3C=C4C5CCC6Cc7nc8c(nc7C[C@@]6(C)C5C[C@H](O)[C@@]4(C)[C@]13O)CC1CCc3c(cc4c5c3C(O)C[C@H]5[C@@H](C)C3(O4)OC(C)(C)CC3O)[C@]1(C)C8)O[C@@](C)(CO)C[C@@H]2O` (stereo not given in full): the T/C (dose: 50.0 micrograms/kg/injection, schedule: Q01DX009 (ip), vehicle: saline + alcohol) was 125 % of control.
As for `CNC1CC2OC(C)(C1OC)n1c3ccccc3c3c4c(c5c6ccccc6n2c5c31)C(=O)NC4` (stereo not given), the survivor count is, setting by setting: (dose: 3.0 mg/kg/injection, schedule: Q01DX005 (ip), vehicle: water) 5 of 6; (dose: 6.0 mg/kg/injection, schedule: Q01DX005 (ip), vehicle: water) 0 of 6.
Turning to `CNc1ccc(CN2CCCCC2)cc1C`, the survivor count runs as follows: (dose: 7.5 mg/kg/injection, schedule: Q01DX005 (ip), vehicle: Klucel (hydroxypropylcellulose) (HPC)) 0 of 6; (dose: 15.0 mg/kg/injection, schedule: Q01DX005 (ip), vehicle: Klucel (hydroxypropylcellulose) (HPC)) 0 of 6; (dose: 60.0 mg/kg/injection, schedule: Q01DX005 (ip), vehicle: Klucel (hydroxypropylcellulose) (HPC)) 1 of 6; (dose: 120.0 mg/kg/injection, schedule: Q01DX005 (ip), vehicle: Klucel (hydroxypropylcellulose) (HPC)) 0 of 6; under setting [9], 0 of 6.
As to `COC(=O)c1nc(N)nc(C(=O)OC)c1C(=O)c1ccco1`, the survivor count under setting [9] was 0 of 6.
As to `CCn1c(=O)c2[nH]c(Cl)nc2n(C2CC2)c1=O`, under setting [7], the survivor count is given as 0 of 6.
Consider `CCCNC(=S)Nc1ccc(F)cc1F`, for which the T/C under setting [10] was 91 % of control. Besides, the survivor count under setting [10] is reported as 2 of 6, 3 of 6, 6 of 6; the survivor count (dose: 100.0 mg/kg/injection, schedule: Q01DX009 (ip), vehicle: other) was 0 of 6; the survivor count (dose: 200.0 mg/kg/injection, schedule: Q01DX009 (ip), vehicle: other) is listed as 0 of 6.
With `COc1cc2c(Cc3ccc(OC)c(OC)c3)[n+](Cc3ccccc3)ccc2cc1NCc1ccccc1`, the T/C is 131 % of control (dose: 3.13 mg/kg/injection, schedule: Q01DX009 (ip), vehicle: Klucel (hydroxypropylcellulose) (HPC)); 145 % of control under setting [4]; 130 and 136 % of control under setting [5]. Besides, the survivor count runs as follows: under setting [6], 5 of 6; (dose: 50.0 mg/kg/injection, schedule: Q01DX009 (ip), vehicle: Klucel (hydroxypropylcellulose) (HPC)) 0 of 6.
As for `CN=C(C)NC1CCCCC1`, the survivor count under setting [11] is 3 of 6.
In the case of `CNC(=O)OCc1c(COC(=O)NC)c(C)n(-c2ccc(Cl)c(Cl)c2)c1C`, under setting [12], the T/C is 148 % of control. Under setting [13], the survivor count is 5 of 6 and 6 of 6.
Take `O=C(O)CC(=O)O.[NH-]C1CCCC([NH-])C1.[Pt+2]` (stereo not given): under “dose: 6.25 mg/kg/injection, schedule: Q04DX002 (ip), vehicle: saline with Tween-80”, the T/C was 147 % of control.
For `CC[C@H]1C[C@H](Cc2ccccc2)CC[C@H]1N1CCCC1`, the survivor count under setting [8] is listed as 0 of 6.
Consider `CC(=O)c1ccc(Cl)c(-n2cccc2)c1`, for which the survivor count (dose: 200.0 mg/kg/injection, schedule: Q01DX005 (ip), vehicle: Klucel (hydroxypropylcellulose) (HPC)) is on record as 5 of 5.
On to `C=Cc1cc[n+](CC(=O)c2ccccc2)cc1`, for which the survivor count is 3 of 6 under setting [12] and 0 of 6 under setting [13].
Turning to `Cc1ccc(C(=O)C(C#N)=Nc2ccc(N(C)C)cc2)cc1`, the survivor count (dose: 25.0 mg/kg/injection, schedule: Q01DX005 (ip), vehicle: Klucel (hydroxypropylcellulose) (HPC)) is on record as 6 of 6.
For `CN1C(=O)C23SSC1(C)C(=O)N2c1ccccc1C3(C)C` (stereo not given), the survivor count runs as follows: (dose: 50.0 mg/kg/injection, schedule: Q01DX009 (ip), vehicle: suspension in saline) 6 of 6; (dose: 100.0 mg/kg/injection, schedule: Q01DX009 (ip), vehicle: saline) 6 of 6; under setting [11], 6 of 6.
`CC1CC[N+](C)([B-](F)(F)F)CC1` (stereo not given): the survivor count under setting [2] is 0 of 6.
On to `CCC(O)CC1OC2(CCC1C)CC1OC(=O)/C=C\C(C)(O)C(O)C(C)C(O)C(OC3CC(OC)C(O)C(C)O3)C(O)C(C)(O)CCC/C=C/C3CC(C)COC3(O)CC(O2)C1C` (stereo not given), for which, under “dose: 4.0 mg/kg/injection, schedule: Q01DX005 (ip), vehicle: saline + alcohol”, the survivor count is 0 of 6.
With `N#CC(Br)C(N)=O` (stereo not given), the T/C (dose: 10.0 mg/kg/injection, schedule: Q01DX009 (ip), vehicle: saline with Tween-80) is 126 % of control.
On to `NC(=S)N/N=C1/CCCC/C1=N/O`, for which, under setting [3], the survivor count is reported as 0 of 6.
As for `COc1ccc2c(c1)C13CCCCC1C(C2)N(C)CC3` (stereo not given), the survivor count reads like this: (dose: 100.0 mg/kg/injection, schedule: Q01DX005 (ip), vehicle: saline) 3 of 6; under setting [2], 0 of 6.

(Values after PubChem BioAssay AID330 (DTP/NCI, 2004).)
